According to article PMC6789022:
No constants are given. Whether binding was seen depends on the method and setting. Some binding calls cover weakened binding; strength is not graded here. For some assays here: Where a sequence is shown, tags or fusion partners need not be part of it.

How the values were obtained:
[1] = target: Flag_HINT1_WT, human HINT1 stably expressed in HINT1 knockdown RBL cells (human) (UniProt P49773); assay: native gel or EMSA; HINT1 knockdown RBL cells stably expressing Flag_HINT1, IgE and antigen stimulation, lysate, SDS-PAGE without pre-heating, anti-FLAG western blot
[2] = target: Flag_HINT1_Y109D, human HINT1 Y109D stably expressed in HINT1 knockdown RBL cells (human) (UniProt P49773); assay: as above

Row | binding [1] | binding [2] | Molecule
1 | binds | – | Flag_HINT1_WT, human HINT1 stably expressed in HINT1 knockdown RBL cells (from UniProt P49773 1-126)
2 | – | no binding | Flag_HINT1_Y109D, human HINT1 Y109D stably expressed in HINT1 knockdown RBL cells (protein, UniProt P49773 1-126) MADEIAKAQVARPGGDTIFGKIIRKEIPAKIIFEDDRCLAFHDISPQAPTHFLVIPKKHISQISVAEDDDESLLGHLMIVGKKCAADLGLNKGYRMVVNEGSDGGQSVDHVHLHVLGGRQMHWPPG
